The results in this text go back to patent US7959743B2, “Lithium salts of fatty alcohol sulphates for cleaning boreholes, boring devices and borings” (priority 2004, dated 2011).

The data set can be described thus: Cleaning effect: removal of drilling fluid from a measuring beaker. To be noted: Table 1; products used as 5% aqueous solutions, 200 ml, 8 g ester-oil drilling fluid aged 16 h at 200° F., shaken 3 minutes; reduction in weight.

With Na lauryl sulfate C12 [V2], the “Performance in % (cleaning performance)” value was found to be 62%. The value for Na lauryl sulfate C12/14 [V1] was 75%.
